For test [1], the target named is Neurobeachin (mouse (endogenous in mouse brain)) (UniProt Q9EPN1). Put plainly: affinity purification with mass spectrometry; IP with α-Nbea antibody from the P2+microsomes fraction of P84 mouse brain solubilised with 1% n-Dodecyl β-D-maltoside (DDM), protein A/G agarose, 4°C; controls: empty beads, E18 KO IP; LTQ-Orbitrap.
Test [2] has the same target. Put plainly: affinity purification with mass spectrometry; IP with α-Nbea antibody from E18 mouse brain homogenates solubilised with 1% Triton X-100, protein A/G agarose, 4°C; controls: Nbea KO brain, pre-immune serum, empty beads; SDS-PAGE, trypsin, LTQ-Orbitrap.

Sequences of proteins named here, by UniProt entry; tags and fusion partners are left off.
UniProt Q9EPN1: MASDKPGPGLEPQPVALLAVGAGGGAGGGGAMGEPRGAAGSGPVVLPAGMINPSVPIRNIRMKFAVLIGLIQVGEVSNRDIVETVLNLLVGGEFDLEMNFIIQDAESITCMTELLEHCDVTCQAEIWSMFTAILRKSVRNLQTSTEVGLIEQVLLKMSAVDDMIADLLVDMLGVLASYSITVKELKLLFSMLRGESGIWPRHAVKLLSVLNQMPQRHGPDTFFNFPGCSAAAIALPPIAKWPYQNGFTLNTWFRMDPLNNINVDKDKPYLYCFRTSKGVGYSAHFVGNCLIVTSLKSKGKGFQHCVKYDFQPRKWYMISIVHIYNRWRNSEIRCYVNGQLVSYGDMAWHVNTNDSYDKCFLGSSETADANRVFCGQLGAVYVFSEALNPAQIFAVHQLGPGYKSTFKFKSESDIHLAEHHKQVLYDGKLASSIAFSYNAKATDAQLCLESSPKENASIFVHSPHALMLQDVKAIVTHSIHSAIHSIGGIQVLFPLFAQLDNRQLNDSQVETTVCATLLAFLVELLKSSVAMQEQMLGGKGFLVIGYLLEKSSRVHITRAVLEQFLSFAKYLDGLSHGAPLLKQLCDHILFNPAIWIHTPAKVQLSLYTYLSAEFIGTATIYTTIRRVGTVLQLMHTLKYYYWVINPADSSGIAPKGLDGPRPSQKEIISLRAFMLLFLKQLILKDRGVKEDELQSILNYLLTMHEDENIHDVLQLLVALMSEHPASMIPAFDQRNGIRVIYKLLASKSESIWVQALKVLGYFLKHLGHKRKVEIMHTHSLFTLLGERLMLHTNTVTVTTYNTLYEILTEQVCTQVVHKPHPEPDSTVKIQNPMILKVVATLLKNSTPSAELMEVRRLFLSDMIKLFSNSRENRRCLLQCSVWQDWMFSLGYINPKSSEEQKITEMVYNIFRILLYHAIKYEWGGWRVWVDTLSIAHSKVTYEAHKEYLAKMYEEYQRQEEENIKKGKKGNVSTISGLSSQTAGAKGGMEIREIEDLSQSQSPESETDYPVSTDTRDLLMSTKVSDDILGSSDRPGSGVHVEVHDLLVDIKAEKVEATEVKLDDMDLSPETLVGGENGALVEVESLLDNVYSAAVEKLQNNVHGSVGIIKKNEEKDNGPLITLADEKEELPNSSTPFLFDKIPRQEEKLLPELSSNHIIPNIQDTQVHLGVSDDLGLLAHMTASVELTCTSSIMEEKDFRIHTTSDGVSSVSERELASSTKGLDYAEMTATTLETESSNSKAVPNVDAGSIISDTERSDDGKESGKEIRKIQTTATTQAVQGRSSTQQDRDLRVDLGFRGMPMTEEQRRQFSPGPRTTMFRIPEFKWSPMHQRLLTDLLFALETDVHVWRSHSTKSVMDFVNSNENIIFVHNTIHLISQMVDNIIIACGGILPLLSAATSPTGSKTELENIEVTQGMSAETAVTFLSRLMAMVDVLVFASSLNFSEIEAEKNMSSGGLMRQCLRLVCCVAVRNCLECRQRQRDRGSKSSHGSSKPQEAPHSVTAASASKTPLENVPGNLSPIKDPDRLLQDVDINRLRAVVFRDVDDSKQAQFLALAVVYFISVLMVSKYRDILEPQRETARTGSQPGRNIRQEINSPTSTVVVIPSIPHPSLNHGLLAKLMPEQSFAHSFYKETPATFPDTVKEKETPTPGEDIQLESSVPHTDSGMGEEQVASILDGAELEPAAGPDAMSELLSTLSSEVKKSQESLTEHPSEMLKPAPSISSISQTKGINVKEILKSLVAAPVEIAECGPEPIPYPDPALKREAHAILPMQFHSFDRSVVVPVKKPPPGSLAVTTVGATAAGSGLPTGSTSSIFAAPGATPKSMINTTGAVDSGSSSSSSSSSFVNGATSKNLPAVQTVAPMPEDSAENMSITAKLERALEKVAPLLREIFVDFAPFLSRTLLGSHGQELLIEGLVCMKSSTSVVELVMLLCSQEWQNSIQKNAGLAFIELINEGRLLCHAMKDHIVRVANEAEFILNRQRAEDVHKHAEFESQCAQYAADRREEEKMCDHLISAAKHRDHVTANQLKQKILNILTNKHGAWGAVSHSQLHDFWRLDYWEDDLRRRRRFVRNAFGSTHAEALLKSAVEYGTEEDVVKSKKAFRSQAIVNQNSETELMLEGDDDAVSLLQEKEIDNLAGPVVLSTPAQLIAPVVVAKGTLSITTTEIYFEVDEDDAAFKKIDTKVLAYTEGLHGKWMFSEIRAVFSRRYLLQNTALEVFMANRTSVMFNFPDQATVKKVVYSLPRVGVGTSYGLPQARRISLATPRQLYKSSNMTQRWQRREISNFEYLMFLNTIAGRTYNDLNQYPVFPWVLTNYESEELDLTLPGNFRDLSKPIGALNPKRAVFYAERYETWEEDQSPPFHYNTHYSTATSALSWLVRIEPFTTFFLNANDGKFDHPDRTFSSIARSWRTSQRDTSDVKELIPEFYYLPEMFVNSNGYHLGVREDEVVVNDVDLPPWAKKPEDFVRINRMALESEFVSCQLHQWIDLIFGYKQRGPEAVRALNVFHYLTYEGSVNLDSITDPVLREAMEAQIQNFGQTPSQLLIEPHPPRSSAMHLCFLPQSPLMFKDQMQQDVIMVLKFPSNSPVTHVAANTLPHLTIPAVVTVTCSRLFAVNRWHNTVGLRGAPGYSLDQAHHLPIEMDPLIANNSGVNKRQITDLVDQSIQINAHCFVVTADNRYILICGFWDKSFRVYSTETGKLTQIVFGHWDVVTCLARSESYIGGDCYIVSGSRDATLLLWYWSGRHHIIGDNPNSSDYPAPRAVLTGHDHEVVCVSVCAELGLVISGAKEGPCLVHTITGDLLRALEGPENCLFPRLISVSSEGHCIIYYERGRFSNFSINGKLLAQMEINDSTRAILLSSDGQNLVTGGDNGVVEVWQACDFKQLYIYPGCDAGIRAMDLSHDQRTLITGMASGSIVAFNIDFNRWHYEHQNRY

Results are given in words; binding and its absence hold for the method and conditions named. In cells and extracts the contact can be indirect. A yes stands for co-enrichment or nearness to the bait. Other partners may have been found.

B1: Serine/threonine-protein kinase Nek 9 (protein, UniProt Q8K1R7 1-984)
chain: MSVLGEYERHCDSINSDFGSESGGGGDSGPGPSAVPGPRAGGGAAEQEELHYIPIRVLGRGAFGEATLYRRTEDDSLVVWKEVDLTRLSEKERRDALNEIVILALLQHDNIIAYYNHFMDNTTLLIELEYCNGGNLYDKILRQKDKLFEEEMVVWYLFQIVSAVSCIHKAGILHRDIKTLNIFLTKANLIKLGDYGLAKKLNSEYSMAETLVGTPYYMSPELCQGVKYNFKSDIWAVGCVIFELLTLKRTFDATNPLNLCVKIVQGIRAMEVDSSQYSLELIQLVHACLDQDPEQRPAADALLDLPLLRTRRREMEEKVTLLNAPTKRPRSSTVTEAPIAVVTSRTSEVYVWGGGKSTPQKLDVIKSGCSARQVCAGNTHFAVVTVEKELYTWVNMQGGTKLHGQLGHGDKASYRQPKHVEKLQGKAIHQVSCGDDFTVCVTDEGQLYAFGSDYYGCMGVDKVSGPEVLEPMQLNFFLSNPVEQVSCGDNHVVVLTRNKEVYSWGCGEYGRLGLDSEEDYYTPQRVDVPKALIIVAVQCGCDGTFLLTQSGKVLACGLNEFNKLGLNQCMSGIINHEAYHEVPYTTSFTLAKQLSFYKIRTIAPGKTHTAAIDERGRLLTFGCNKCGQLGVGNYKKRLGINLLGGPLGGKQVIRVSCGDEFTIAATDDNHIFAWGNGGNGRLAMTPTERPHGSDICTSWPRPIFGSLHHVPDLSCRGWHTILIVEKVLNSKTIRSNSSGLSIGTVVQSSSPGGGIGGGGGGGGGGGGEEEDSQQESETPDPSGGFRGTMEADRGMEGLISPTEAVGNSCGASSSCPGWLRKELENAEFIPMPDSPAPLSAAFSQSEKDTLPYEELQGLKVASEVPPEPQRAAGAWPPRLDPAVPCVGKALTSAACACSALQVEVDRLQALVLKCLEEQQKLQQENLQMFTQLQKLNKKLEGGQQVGMHSRGTQTAKEEMEMDPKPDLDSESWCLLGTDSCRPSL
B1: the binding entry in test [1] and in test [2] was “binds” each time.

The values above are taken from article PMC3380004.
